Data from patent US8354403B2, “Pyrrolidine derived beta 3 adrenergic receptor agonists” (Merck Sharp & Dohme Corp., priority 2009, dated 2013).
Structures were worked out from names or drawings and are uncertain.

Chains of the proteins cited; added tags and fusions are not shown.
UniProt P13945, whole entry: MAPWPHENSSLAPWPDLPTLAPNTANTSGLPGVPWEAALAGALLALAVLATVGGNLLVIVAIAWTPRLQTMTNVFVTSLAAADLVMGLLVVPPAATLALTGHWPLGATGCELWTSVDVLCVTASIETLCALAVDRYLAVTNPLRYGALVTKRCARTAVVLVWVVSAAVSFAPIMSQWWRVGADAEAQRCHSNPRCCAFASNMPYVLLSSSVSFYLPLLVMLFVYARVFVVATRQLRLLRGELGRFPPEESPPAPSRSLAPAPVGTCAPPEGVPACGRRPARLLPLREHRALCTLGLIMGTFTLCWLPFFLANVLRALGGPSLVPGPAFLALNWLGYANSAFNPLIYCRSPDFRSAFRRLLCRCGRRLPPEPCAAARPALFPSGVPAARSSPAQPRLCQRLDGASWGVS

Target: human β3 adrenergic receptor (Homo sapiens, UniProt P13945)
Test: Beta-3 agonist in vitro functional assay: cAMP production (LANCE TR-FRET) in CHO cells stably transfected with the cloned β3 receptor
Assay type: cell-based
Conditions: read-out: Human β3 agonist functional activity; Table 4; cAMP, CHO cells

SMILES | EC50 [µM]
O=C(c1ccc(C[C@@H]2CC[C@H]([C@H](O)c3ccccc3)N2)cc1)N1CC=CC(n2ccnn2)C1 (stereo partly drawn) | 0.1 to 0.999
O=C(c1ccc(C[C@@H]2CC[C@H]([C@H](O)c3ccccc3)N2)cc1)N1CCCC(S(=O)(=O)c2ccc(Br)cc2)C1 (stereo partly drawn) | 0.01 to 0.0999
O=C(c1ccc(C[C@@H]2CC[C@H]([C@H](O)c3ccccc3)N2)cc1)N1CCCC2(CC3CCCCN3C2=O)C1 (stereo partly drawn) | 0.1 to 0.999
O=C(c1ccc(C[C@@H]2CC[C@H]([C@H](O)c3ccccc3)N2)cc1)N1CC=CC(n2nccn2)C1 (stereo partly drawn) | 0.1 to 0.999
O=C(c1ccc(C[C@@H]2CC[C@H]([C@H](O)c3ccccc3)N2)cc1)N1CCC(n2cccn2)C1 (stereo partly drawn) | 0.1 to 0.999

Same assay, conditions: read-out: Human β3 agonist functional activity; Table 5; cAMP, CHO cells

SMILES | EC50 [µM]
O=C(c1ccc(C[C@@H]2CC[C@H]([C@H](O)c3ccccc3)N2)cc1)N1CCC(n2nccn2)CC1 | 0.1 to 0.999
O=C(c1ccc(C[C@@H]2CC[C@H]([C@H](O)c3ccccc3)N2)cc1)N1CCC(c2nc3ccccc3[nH]2)CC1 | 0.1 to 0.999
CC(C)n1nnc(C2CCN(C(=O)c3ccc(C[C@@H]4CC[C@H]([C@H](O)c5ccccc5)N4)cc3)CC2)n1 | 0.01 to 0.0999
Cc1ccc(S(=O)(=O)C2CCN(C(=O)c3ccc(C[C@@H]4CC[C@H]([C@H](O)c5ccccc5)N4)cc3)CC2)cc1 | 0.001 to 0.0099

Same assay, conditions: read-out: Human β3 agonist functional activity; Table 6; cAMP, CHO cells

SMILES | EC50 [µM]
Cn1nnc([C@H]2[C@@H]3CN(C(=O)c4ccc(C[C@@H]5CC[C@H]([C@H](O)c6ccccc6)N5)cc4)C[C@@H]32)n1 | 0.001 to 0.0099
CC(C)n1ncc([C@H]2[C@@H]3CN(C(=O)c4ccc(C[C@@H]5CC[C@H]([C@H](O)c6ccccc6)N5)cc4)C[C@@H]32)n1 | 0.01 to 0.0999

Same assay, conditions: read-out: Human β3 agonist functional activity; Table 8; Beta-3 agonist in vitro functional assay

SMILES | EC50 [µM]
CC(C)(C)N1CCC2(CCN(C(=O)c3ccc(C[C@@H]4CC[C@H]([C@H](O)c5cccnc5)N4)cc3)CC2)C1=O | 0.1 to 0.999
O=C1OC2(CCN(C(=O)c3ccc(C[C@@H]4CC[C@H]([C@H](O)c5ccccc5)N4)cc3)CC2)CC1c1ccccc1 (stereo partly drawn) | 0.01 to 0.0999

Same assay, conditions: read-out: Human β3 agonist functional activity; Table 9; Beta-3 agonist in vitro functional assay

SMILES | EC50 [µM]
O=C(c1ccc(C[C@@H]2CC[C@H]([C@H](O)c3ccccc3)N2)cc1)N1CCN(c2ccc(F)cc2)CC1 | 0.1 to 0.999
O=C(c1ccc(C[C@@H]2CC[C@H]([C@H](O)c3ccccc3)N2)cc1)N1CCN(Cc2ccn(-c3ccccn3)n2)CC1 | 0.001 to 0.0099

Same assay, conditions: read-out: Human β3 agonist functional activity; Table 12; human β3 functional activity given as ranges

SMILES | EC50 [µM]
CC(c1cscn1)N1CCN(C(=O)c2ccc(C[C@@H]3CC[C@H]([C@H](O)c4ccccc4)N3)cc2)CC1 (single isomer, unassigned) | 0.001 to 0.0099
O=C(c1ccc(C[C@@H]2CC[C@H]([C@H](O)c3ccccc3)N2)cc1)N1CCN(C2COc3cccnc32)CC1 (single isomer, unassigned) | 0.001 to 0.0099
CC(c1ncc2ccccc2n1)N1CCN(C(=O)c2ccc(C[C@@H]3CC[C@H]([C@H](O)c4ccccc4)N3)cc2)CC1 (single isomer, unassigned) | 0.001 to 0.0099
